PubChem BioAssay AID1259308 | NCATS, 2017

- Aim: 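Genes whose loss raises luciferase production in HEK293 cells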 (primary screen)
- System: human HEK293 embryonic kidney cells stably expressing firefly luciferase (HEK-CMV-Luc2-Hygro)
- Reagent: single siRNA against human genes, 0.8 pmol siRNA per well
- Timing: 72 h
- Read-out: 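Luciferase light (ONE-Glo) measured on one replicate plate set and viability (CellTiter-Glo) on the other, scaled to a negative control siRNA, with robust z-scores and luciferase per cell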
- Direction: total luciferase, z-score and total luciferase, % of control: higher = more reporter protein produced
- Call rule: 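Active when the median/MAD z-score for overall luciferase is greater than 3; a gene was taken forward for validation with new siRNAs if at least two of its three siRNAs passed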
- Meaning of the calls: active = raised luciferase; inactive = no rise
The deposit covers about 59,000 reagents; below is a part drawn at random. About 1,510 of all reagents (2.6%) were called active. 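Calls use total luciferase alone and ignore viability, so some active siRNAs may act by altering cell number.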 A number with no mark means an inactive call. The numbers tell different reagents against one gene apart. Not all columns of the deposit are shown. No sequences are given here.

With MCHR2 (melanin concentrating hormone receptor 2) #1, what does the deposit list?
total luciferase, z-score: 0.311; total luciferase, % of control: 88.1

For MCHR2 (melanin concentrating hormone receptor 2) #2, how do the results read?
total luciferase, z-score: 1.6; total luciferase, % of control: 114

What is on record for MCHR2 (melanin concentrating hormone receptor 2) #3?
total luciferase, z-score: -1.72; total luciferase, % of control: 47.6

For TNN (tenascin N) #1, how do the results read?
total luciferase, z-score: 0.192; total luciferase, % of control: 85.7

What did the screen give for TNN (tenascin N) #2?
total luciferase, z-score: 0.838; total luciferase, % of control: 98.6

For TNN (tenascin N) #3, what does the deposit list?
total luciferase, z-score: 0.197; total luciferase, % of control: 85.8

With KIF17 (kinesin family member 17) #1, what was measured?
total luciferase, z-score: -0.839; total luciferase, % of control: 65.2

For KIF17 (kinesin family member 17) #2, what was measured?
total luciferase, z-score: -0.191; total luciferase, % of control: 78.1

With KIF17 (kinesin family member 17) #3, what does the deposit list?
total luciferase, z-score: -0.025; total luciferase, % of control: 81.4

Copied from the list.
MCHR2 (melanin concentrating hormone receptor 2) #3, total luciferase, z-score → -1.72
Under “total luciferase, % of control”, KIF17 (kinesin family member 17) #3 is entered as 81.4

The results go on.
With ZNF16 (zinc finger protein 16) #1, how do the results read?
total luciferase, z-score: -0.0464; total luciferase, % of control: 81

How did the screen score ZNF16 (zinc finger protein 16) #2?
total luciferase, z-score: 1.09; total luciferase, % of control: 104

For ZNF16 (zinc finger protein 16) #3, what does the deposit list?
total luciferase, z-score: -0.345; total luciferase, % of control: 75

What is on record for AFM (afamin) #1?
total luciferase, z-score: -2.09; total luciferase, % of control: 40.4

Which result is listed for AFM (afamin) #2?
total luciferase, z-score: -0.57; total luciferase, % of control: 70.5

For AFM (afamin) #3, what was measured?
total luciferase, z-score: 0.116; total luciferase, % of control: 84.2

Which result is listed for BEND6 (BEN domain containing 6) #1?
total luciferase, z-score: -0.879; total luciferase, % of control: 64.4

For BEND6 (BEN domain containing 6) #2, what does the deposit list?
total luciferase, z-score: 0.179; total luciferase, % of control: 85.4

What is on record for BEND6 (BEN domain containing 6) #3?
total luciferase, z-score: -0.495; total luciferase, % of control: 72

With CLDN14 (claudin 14) #1, what was measured?
total luciferase, z-score: -0.441; total luciferase, % of control: 73.1

For CLDN14 (claudin 14) #2, how do the results read?
total luciferase, z-score: -0.231; total luciferase, % of control: 77.3

How did the screen score CLDN14 (claudin 14) #3?
total luciferase, z-score: 2.65; total luciferase, % of control: 135
